For part of these data: Expression grades refer to the transcript from which the peptide derives; gene names, where given, were looked up from the sequence.
Tests used:
[1] = test system: source genes in head and neck squamous cell carcinoma; assay: Expression profiling (RNASeq) of genes encoding the peptides; parameters: species or system human; key: very highly over-expressed in tumors compared to a panel of normal tissues (+++); highly over-expressed in tumors compared to a panel of normal tissues (++); over-expressed in tumors compared to a panel of normal tissues (+); conditions: expression score of source gene, tumors compared to a panel of normal tissues
additional tumor types = assay: LC-MS presentation of peptides on additional tumor types versus normal tissues; parameters: species or system human; conditions: additional tumor types where over-presented on more than 5% of measured tumor samples, or presented on more than 5% with ratio of geometric means tumor vs normal larger than 3 (Table 4A)
[2] = test system: head and neck squamous cell carcinoma samples; assay: Identification and label-free LC-MS quantitation of HLA-presented peptides (presentation profile) on HNSCC versus normal tissues; parameters: species or system human; key: very highly over-presented on tumors compared to a panel of normal tissues (+++); highly over-presented on tumors compared to a panel of normal tissues (++); over-presented on tumors compared to a panel of normal tissues (+); conditions: presentation score: over-presentation on head and neck squamous cell carcinoma tumors compared to a panel of normal tissues

Row | Substance | Gene Expression [1] | Other relevant organs/diseases (additional tumor types) | Peptide Presentation [2]
1 | 53: peptide found in LGALS7 (gene looked up) (RLVEVGGDVQL; listed as Homo sapiens) [compound 53] | +++ | Esophageal Cancer, Urinary bladder cancer | +++
2 | 82: peptide found in DSG1 (gene looked up) (VLDINDNPPV; listed as Homo sapiens) [compound 82] | +++ | Melanoma | +++
3 | 91: peptide found in ODC1 (gene looked up) (MLFENMGAYTV; listed as Homo sapiens) [compound 91] | ++ | SCLC, CLL, NHL, Uterine Cancer | +

Source: patent US10688131B2, “Peptides and scaffolds for use in immunotherapy against head and neck squamous cell carcinoma and other cancers” (Immatics Biotechnologies GmbH, priority 2016, dated 2020)
